# Test results published in patent EP4792891A2 (LTZ Therapeutics Inc., dated 2026).
# Results are given in words; binding and its absence hold for the method and conditions named. Some results given as binding are weak or reduced against the parent protein; the word gives no strength. For some of these results: Tags and fused reporters may be left off the sequences shown.
# T1: Human CLEC5A (C-type lectin domain family 5 member A) on the cell surface (human) (UniProt Q9NY25)
# T1 sequence: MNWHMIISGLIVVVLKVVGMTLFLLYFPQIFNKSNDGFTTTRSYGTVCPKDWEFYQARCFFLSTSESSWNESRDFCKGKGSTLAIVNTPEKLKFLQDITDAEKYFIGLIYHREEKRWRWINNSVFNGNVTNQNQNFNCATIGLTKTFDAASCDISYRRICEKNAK
# T2: Human CLEC5A His Tag protein (ACROBiosystems, Cat#: CLA-H5243) (human) (UniProt Q9NY25)
# T2 sequence: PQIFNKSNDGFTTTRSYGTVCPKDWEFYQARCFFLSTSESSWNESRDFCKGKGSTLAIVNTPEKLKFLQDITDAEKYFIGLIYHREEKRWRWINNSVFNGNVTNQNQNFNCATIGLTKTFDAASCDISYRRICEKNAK
# B1: 9E11 (rabbit anti-CLEC5A clone) (antibody, V domains shown)
# VH: QSLEESGGGLVQPEGSLTLTCTASGFDLNNYYYMCWVRQAPGKGLEWIACTHAGSSSSSYYARWAKGRFTISKTSSTTVTLQMTSLTAADTATYFCARHDRDYDDMDLWGPGTLVTVSS
# VL: NIVMTQTTSPVSAVVGGTITINCQASQSIEYGYLSWYQQKPGQPPKLLIFYASKLASGVPSRFSGSGSGTQFTLTISGVQPDDAATYFCLYGYFDDYSGAAFGGGTEVVVK
# B2: 6G9 (rabbit anti-CLEC5A clone) (antibody, V domains shown)
# VH: QSLEESGGDLVKPGASLTLTCTASGFSFTSNKYMCWVRQAPGKGPEWIACIYVGDGNTYYASWAKGRFTISKTSSTTVTLQMTSLTVADTATYFCARGGDYSIGGGGFASNLWGPGTLVTVSS
# VL: AFELTQTPSSVEAAVGGTVTINCQASESISNFLAWYRQKPGQPPKLLIYRASTLASGVSSRFKGSGSGTEFTLTISDLEPADGASYYCQSYYGTSSTGHNVFGGGTEVVVK
# B3: 5C7 (rabbit anti-CLEC5A clone) (antibody, V domains shown)
# VH: QSLEESGGDLVKPGASLTLTCTASGFSFSRSSYMCWVRQAPGKGLEWIGCLSVGDGHTYYASWAKGRFTISKTSSTSVTLQMTRLTAADTATYFCARAPSYSGDGGHGYDLWGPGTLVTVSS
# VL: AIVMTQTPSSKSVPVGDTVTINCQASESVDRNNRLAWFQQKPGQPPKLLIYTTSTLASGVPSRFKGSGSGTHFTLTISDVVPDDAATYYCAGYRGAHTDGDAFGGGTEVVVK
# B4: 6A5 (rabbit anti-CLEC5A clone) (antibody, V domains shown)
# VH: QQQLEESGGGLVKPGGTLTLTCTASGFSFSSSYYMCWVRQAPGKGLELIACIYSSSGRTWYATWVNGRFTISRSTSLNTVDLKMTSLTAADTATYFCARSYAGYGGYGYAYFNLWGPGTLVTVSS
# VL: DIVMTQTPASVEAGVGGTVTIKCQASEDIYSSLAWYQQKAGQRPKLLIYDASTLASGVPSRFKGSGSGTEYTLTISGVQPDDAATYYCQNYYDSTGSGYGAAFGGGTEVVVK
# B5: 7G10 (rabbit anti-CLEC5A clone) (antibody, V domains shown)
# VH: QQQLEESGGGLVKPGGTLTLTCKASGFSFSSGYDMCWVRQAPGKGLEWIACIYGGRSDNVYYARWAKGRFTISKTSSTTVTLQMTSLTAADTATYFCARDYLYRGYIGGGYGRSNLWGPGTLVTVSS
# VL: DVVMTQTPASVSAAVGGTVTINCRASEDIENCLAWYQQKPGQPPKLLIYQASKLPSGVPSRFSGSGSGTEYTLTISDLEPDDGATYYCQNPDYMRNTDNLFGGGTEVVVK
# B6: 14A2 (rabbit anti-CLEC5A clone) (antibody, V domains shown)
# VH: QSLEESGGGLVKPEGSLTLTCKASGFTLSSYYYMCWVRQAPGKGLEWIACIYAGSSGTTVYASWAKGRFTISKTSSTTVTLQMTSLTAADTATYLCARKLGDVGYGHTTYFNLWGPGTLVTVSS
# VL: ALVMTQTPSSVSAAVGGTVTIKCQASQNIYSTLAWYQQKPGQPPKLLMFDASDLASGVPSRFKGSGSGTEYTLTISDLEPADAATYFCQTYYDSGSDDLNAFGGGTEVVVK
# B7: 13E6 (rabbit anti-CLEC5A clone) (antibody, V domains shown)
# VH: QSLEESGGDLVKPGGTLTLTCTASGFSFSSSYWLCWVRQAPGKGLEWIACIYGGSSRGTYYASWAKGRFTISKTSSTTVTLQMTSLTAADTATYFCASHTYTYPRFSPYFNLWGPGTLVSVSS
# VL: AFEMTQTPASVSPAVGGTVSINCQASEDIESSLAWYQQKPGQPPKLLIYDASDLESGVPSRFKGSGSGTEYTLTISGVQPADAATYFCQSAYYTGSADNTFGGGTEVVVK
# B8: 3A7 (rabbit anti-CLEC5A clone) (antibody, V domains shown)
# VH: QSLEESGGDLVKPGASLTLTCTASGFSFSGMYWICWVRQAPGKGLEWIACIYTGSSTTGYASWAKGRFTISKTSSTTVTLQMTSLTAADTATHFCASPYGDSSHYRGLNLWGPGTLVTVSS
# VL: AVVMTQTPASVEAAVGGTVTINCQASQRINNYLSWFQQKPGQPPKLLIYGAATLASGVPSRFKGSGSGTEYTLTISDLEPADAATYYCQCTYGIPSSNYGFGGGTEVVVK
# B9: chimeric anti-CLEC5A antibody 9E11 (antibody, human IgG1, V domains shown)
# VH: B1 VH
# VL: B1 VL
# B10: chimeric anti-CLEC5A antibody 6G9 (antibody, human IgG1, V domains shown)
# VH: B2 VH
# VL: B2 VL
# B11: chimeric anti-CLEC5A antibody 6A5 (antibody, human IgG1, V domains shown)
# VH: B4 VH
# VL: B4 VL
# B12: chimeric anti-CLEC5A antibody 7G10 (antibody, human IgG1, V domains shown)
# VH: B5 VH
# VL: B5 VL
# B13: chimeric anti-CLEC5A antibody 14A2 (antibody, human IgG1, V domains shown)
# VH: B6 VH
# VL: B6 VL
# B14: chimeric anti-CLEC5A antibody 13E6 (antibody, human IgG1, V domains shown)
# VH: B7 VH
# VL: B7 VL
# B15: humanized anti-CLEC5A antibody h13E6 (antibody, V domains shown)
# VH: EQQLLESGGGLVQPGGSLRLSCAASGFSFSSSYWLCWVRQAPGKGLEWIACIYGGSSRGTYYASWAKGRFTISKDSSKNTVYLQMNSLRAEDTAVYFCASHTYTYPRFSPYFNLWGPGTLVTVSS
# VL: EFVMTQSPATLSVSPGERATLSCQASEDIESSLAWYQQKPGQPPRLLIYDASDLESGVPARFSGSGSGTEYTLTISSLQSEDFAVYFCQSAYYTGSADNTFGGGTKVEIK
# B16: humanized anti-CLEC5A antibody h6A5 (antibody, V domains shown)
# VH: EQQLVESGGGLVQPGGSLRLSCSASGFSFSSSYYMCWVRQAPGKGLELIACIYSSSGRTWYATWVNGRFTISRDTSKNTVYLQMNSLRAEDTAVYFCARSYAGYGGYGYAYFNLWGPGTLVTVSS
# VL: EIVMTQSPATLSVSPGERATLSCQASEDIYSSLAWYQQKPGQRPRLLIYDASTLASGVPARFSGSGSGTEYTLTISSLQSEDFAVYYCQNYYDSTGSGYGAAFGGGTKVEIK
# B17: humanized anti-CLEC5A antibody h7G10 (antibody, V domains shown)
# VH: EQQLVESGGGVVQPGRSLRLSCAASGFSFSSGYDMCWVRQAPGKGLEWIACIYGGRSDNVYYARWAKGRFTISKDSSTNTVFLQMNSLRAEDTAVYFCARDYLYRGYIGGGYGRSNLWGPGTLVTVSS
# VL: DVQMTQSPSSVSASVGDRVTITCRASEDIENCLAWYQQKPGKPPKLLIYQASKLPSGVPSRFSGSGSGTDYTLTISSLQPEDFATYYCQNPDYMRNTDNLFGGGTKVEIK
# B18: humanized anti-CLEC5A antibody h3A7 (antibody, V domains shown)
# VH: EQQLLESGGGLVQPGGSLRLSCAASGFSFSGMYWICWVRQAPGKGLEWIACIYTGSSTTGYASWAKGRFTISKDSSKNTVYLQMNSLRAEDTAVYFCASPYGDSSHYRGLNLWGPGTLVTVSS
# VL: DVQMTQSPSSLSASVGDRVTITCQASQRINNYLSWFQQKPGKPPKLLIYGAATLASGVPSRFSGSGSGTDYTLTISSLQPEDVATYYCQCTYGIPSSNYGFGGGTKVEIK
# B19: humanized anti-CLEC5A antibody h5C7 (antibody, V domains shown)
# VH: EQQLVESGGGLVKPGGSLRLSCAASGFSFSRSSYMCWVRQAPGKCLEWIGCLSVGDGHTYYASWAKGRFTISKDSAKNSVYLQMNSLRAEDTAVYFCARAPSYSGDGGHGYDLWGPGTLVTVSS
# VL: DIQMTQSPSSLSASVGDRVTITCQASESVDRNNRLAWFQQKPGKPPKLLIYTTSTLASGVPSRFSGSGSGTDFTLTISSLQPEDVATYYCAGYRGAHTDGDAFGCGTKVEIK
# Biological target: T1, Human CLEC5A (C-type lectin domain family 5 member A) on the cell surface (human)
# Test: flow cytometry on human peripheral monocytes, LEM supernatants, FITC anti-rabbit IgG
row,binding,Binder
1,binds,B1
2,binds,B2
3,binds,B3
4,binds,B4
5,binds,B5
6,binds,B6
7,binds,B7
8,binds,B8

# Biological target: T1, Human CLEC5A (C-type lectin domain family 5 member A) on the cell surface (human)
# Test: flow cytometry on human M0 macrophages
row,binding,Binder
1,binds,B9
2,binds,B10
3,binds,B11
4,binds,B12
5,binds,B13
6,binds,B14

# Biological target: T2, Human CLEC5A His Tag protein (ACROBiosystems, Cat#: CLA-H5243) (human)
# Test: ELISA, plate coated with human CLEC5A
row,binding,Binder
1,binds,B15
2,binds,B16
3,binds,B17
4,binds,B18
5,binds,B19
